From patent US20240082172A1, “METHOD FOR DEPOT CREATION DURING TRANSDERMAL DRUG DELIVERY” (Corium, Inc., priority 2017, published 2024)

Conditions: human cadaver skin, FIG. 2

With `COc1cc2c(cc1OC)C(=O)C(CC1CCN(Cc3ccccc3)CC1)C2` (stereo not drawn) [Donepezil, 2,3-Dihydro-5,6-dimethoxy-2-[[1-(phenylmethyl)-4-piperidinyl]methyl]-1H-inden-1-one] the “skin flux of donepezil” value (patch of Example 7 adhesive matrix (5 cm^2), 32° C., at end of 48 hour patch contact) was “about 6.0 μg/cm^2·hr”, the “flux of donepezil through the skin” value (patch of Example 7 adhesive matrix, by just over 72 hours, patch removed at 48 hours) was “about 2.0 μg/cm^2·hr” and the “period donepezil continued to be delivered across the skin after removal of the patch” value (patch of Example 7 adhesive matrix, patch removed at the 48 hour time point) was 24 to 72 h.
